Data: PMC2821926
Results are given in words; binding and its absence hold for the method and conditions named. In cells and extracts the contact can be indirect. Some binding calls cover weakened binding; strength is not graded here. Sequences can lack the tags named with a protein.

By UniProt entry, the sequences of proteins in these tests, tags left out.
UniProt P49815: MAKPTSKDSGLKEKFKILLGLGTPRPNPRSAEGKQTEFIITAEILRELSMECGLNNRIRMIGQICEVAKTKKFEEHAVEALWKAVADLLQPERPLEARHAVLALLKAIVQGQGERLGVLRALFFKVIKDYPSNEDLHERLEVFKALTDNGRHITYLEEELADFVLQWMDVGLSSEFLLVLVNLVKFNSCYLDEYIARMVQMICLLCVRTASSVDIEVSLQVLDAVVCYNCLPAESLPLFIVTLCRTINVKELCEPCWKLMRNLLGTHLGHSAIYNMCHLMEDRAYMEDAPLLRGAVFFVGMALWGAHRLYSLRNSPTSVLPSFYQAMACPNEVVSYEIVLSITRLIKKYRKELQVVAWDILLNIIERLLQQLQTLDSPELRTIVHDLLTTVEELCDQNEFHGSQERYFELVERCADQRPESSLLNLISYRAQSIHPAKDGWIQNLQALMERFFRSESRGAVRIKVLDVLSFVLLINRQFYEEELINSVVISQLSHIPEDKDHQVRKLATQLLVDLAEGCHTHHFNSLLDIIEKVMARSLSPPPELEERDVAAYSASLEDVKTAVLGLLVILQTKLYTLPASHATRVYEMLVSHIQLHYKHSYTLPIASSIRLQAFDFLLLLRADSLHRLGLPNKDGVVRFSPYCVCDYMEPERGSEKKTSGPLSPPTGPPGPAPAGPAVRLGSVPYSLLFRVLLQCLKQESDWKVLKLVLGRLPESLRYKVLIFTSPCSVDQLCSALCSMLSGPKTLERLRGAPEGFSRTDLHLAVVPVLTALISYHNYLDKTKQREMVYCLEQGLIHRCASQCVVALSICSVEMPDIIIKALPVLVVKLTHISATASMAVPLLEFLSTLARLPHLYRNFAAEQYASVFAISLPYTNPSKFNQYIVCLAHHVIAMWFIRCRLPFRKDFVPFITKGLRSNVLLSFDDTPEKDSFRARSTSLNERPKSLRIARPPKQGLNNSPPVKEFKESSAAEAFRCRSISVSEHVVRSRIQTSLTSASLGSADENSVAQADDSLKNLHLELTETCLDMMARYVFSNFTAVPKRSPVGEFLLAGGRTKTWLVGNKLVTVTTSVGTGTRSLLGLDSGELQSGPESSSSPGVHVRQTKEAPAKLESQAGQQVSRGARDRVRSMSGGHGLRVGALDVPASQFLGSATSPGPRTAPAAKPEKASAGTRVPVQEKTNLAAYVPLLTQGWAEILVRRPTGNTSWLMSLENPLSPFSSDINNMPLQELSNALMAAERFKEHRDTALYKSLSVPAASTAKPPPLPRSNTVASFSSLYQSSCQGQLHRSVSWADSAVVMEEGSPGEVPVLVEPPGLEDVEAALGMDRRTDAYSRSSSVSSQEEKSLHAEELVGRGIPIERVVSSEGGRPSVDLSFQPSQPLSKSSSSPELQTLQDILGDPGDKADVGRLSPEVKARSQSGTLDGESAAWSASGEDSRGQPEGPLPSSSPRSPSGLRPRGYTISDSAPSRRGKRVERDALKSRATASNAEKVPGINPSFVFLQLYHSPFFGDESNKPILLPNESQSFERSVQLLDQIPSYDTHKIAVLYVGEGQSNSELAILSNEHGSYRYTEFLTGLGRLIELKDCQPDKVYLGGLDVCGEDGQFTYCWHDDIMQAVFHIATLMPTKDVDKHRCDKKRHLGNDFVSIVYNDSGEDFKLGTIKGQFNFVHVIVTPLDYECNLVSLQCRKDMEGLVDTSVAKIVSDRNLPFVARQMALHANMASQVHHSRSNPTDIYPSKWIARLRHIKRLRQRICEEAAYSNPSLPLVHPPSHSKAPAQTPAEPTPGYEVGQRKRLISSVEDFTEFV

Target: tuberous sclerosis complex 2 (TSC2) tumor suppressor (human (endogenous in HEK-293)) (UniProt P49815)
Assay: co-IP; lysates of transfected HEK-293 cells (expressing CD44-CP1 or Flag-CP1; Flag-TSC1 for the TSC1-TSC2 pair) incubated with anti-TSC2 or anti-TSC1 antibody and protein A and protein G Sepharose overnight at 4°C; washed with 10 mM Tris pH 7.5, 1% NP-40, 1% Triton X-100, 100 mM NaCl; immunoblot with E1/2, anti-Flag or anti-TSC2

B1: Flag-TSC1 (protein, UniProt Q92574 1-1164)
chain: MAQQANVGELLAMLDSPMLGVRDDVTAVFKENLNSDRGPMLVNTLVDYYLETSSQPALHILTTLQEPHDKHLLDRINEYVGKAATRLSILSLLGHVIRLQPSWKHKLSQAPLLPSLLKCLKMDTDVVVLTTGVLVLITMLPMIPQSGKQHLLDFFDIFGRLSSWCLKKPGHVAEVYLVHLHASVYALFHRLYGMYPCNFVSFLRSHYSMKENLETFEEVVKPMMEHVRIHPELVTGSKDHELDPRRWKRLETHDVVIECAKISLDPTEASYEDGYSVSHQISARFPHRSADVTTSPYADTQNSYGCATSTPYSTSRLMLLNMPGQLPQTLSSPSTRLITEPPQATLWSPSMVCGMTTPPTSPGNVPPDLSHPYSKVFGTTAGGKGTPLGTPATSPPPAPLCHSDDYVHISLPQATVTPPRKEERMDSARPCLHRQHHLLNDRGSEEPPGSKGSVTLSDLPGFLGDLASEEDSIEKDKEEAAISRELSEITTAEAEPVVPRGGFDSPFYRDSLPGSQRKTHSAASSSQGASVNPEPLHSSLDKLGPDTPKQAFTPIDLPCGSADESPAGDRECQTSLETSIFTPSPCKIPPPTRVGFGSGQPPPYDHLFEVALPKTAHHFVIRKTEELLKKAKGNTEEDGVPSTSPMEVLDRLIQQGADAHSKELNKLPLPSKSVDWTHFGGSPPSDEIRTLRDQLLLLHNQLLYERFKRQQHALRNRRLLRKVIKAAALEEHNAAMKDQLKLQEKDIQMWKVSLQKEQARYNQLQEQRDTMVTKLHSQIRQLQHDREEFYNQSQELQTKLEDCRNMIAELRIELKKANNKVCHTELLLSQVSQKLSNSESVQQQMEFLNRQLLVLGEVNELYLEQLQNKHSDTTKEVEMMKAAYRKELEKNRSHVLQQTQRLDTSQKRILELESHLAKKDHLLLEQKKYLEDVKLQARGQLQAAESRYEAQKRITQVFELEILDLYGRLEKDGLLKKLEEEKAEAAEAAEERLDCCNDGCSDSMVGHNEEASGHNGETKTPRPSSARGSSGSRGGGGSSSSSSELSTPEKPPHQRAGPFSSRWETTMGEASASIPTTVGSLPSSKSFLGMKARELFRNKSESQCDEDGMTSSLSESLKTELGKDLGVEAKIPLNLDGPHPSPPTPDSVGQLHIMDYNETHHEHS
binding: binds
